Results are given in words; binding and its absence hold for the method and conditions named. Binding seen in cells or lysates may run through a third protein. A yes stands for co-enrichment or nearness to the bait. Other partners may have been found.
Key:
Assay in all cases: affinity purification with mass spectrometry
MERS-CoV Nsp7 (MERS-CoV) = MERS-CoV Nsp7 (MERS-CoV) (UniProt K9N7C7)
[1] = target: MERS-CoV Nsp14 (MERS-CoV) (UniProt K9N7C7)
MERS-CoV Nsp1 (MERS-CoV) = MERS-CoV Nsp1 (MERS-CoV) (UniProt K9N7C7)

By UniProt entry, the sequences of proteins in these tests, tags left out. Residues count along the entry.
MERS-CoV Nsp1 (K9N7C7, residues 1-193): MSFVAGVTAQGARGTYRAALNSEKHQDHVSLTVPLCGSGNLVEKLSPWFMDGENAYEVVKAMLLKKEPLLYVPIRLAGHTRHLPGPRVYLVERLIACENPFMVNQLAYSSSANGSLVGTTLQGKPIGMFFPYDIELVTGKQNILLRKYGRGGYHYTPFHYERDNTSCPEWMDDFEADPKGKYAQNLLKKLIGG
MERS-CoV Nsp7 (K9N7C7, residues 3846-3928): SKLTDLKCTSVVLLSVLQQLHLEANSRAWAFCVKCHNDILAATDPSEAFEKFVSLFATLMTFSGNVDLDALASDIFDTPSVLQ
MERS-CoV Nsp14 (K9N7C7, residues 5909-6432): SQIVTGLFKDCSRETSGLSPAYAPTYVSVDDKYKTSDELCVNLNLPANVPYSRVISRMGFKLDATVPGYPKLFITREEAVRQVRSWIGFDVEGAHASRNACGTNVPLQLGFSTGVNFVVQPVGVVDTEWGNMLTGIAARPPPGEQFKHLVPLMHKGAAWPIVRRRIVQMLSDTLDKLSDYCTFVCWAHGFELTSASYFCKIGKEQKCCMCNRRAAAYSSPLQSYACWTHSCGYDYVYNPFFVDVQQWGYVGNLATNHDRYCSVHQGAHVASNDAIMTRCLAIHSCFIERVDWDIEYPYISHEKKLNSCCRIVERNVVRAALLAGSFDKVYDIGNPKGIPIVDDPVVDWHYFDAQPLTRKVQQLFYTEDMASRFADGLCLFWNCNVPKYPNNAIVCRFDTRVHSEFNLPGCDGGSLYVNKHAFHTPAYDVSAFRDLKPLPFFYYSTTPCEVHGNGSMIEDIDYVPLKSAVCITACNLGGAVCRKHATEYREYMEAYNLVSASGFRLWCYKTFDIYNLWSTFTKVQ
UniProt Q9H7Z7: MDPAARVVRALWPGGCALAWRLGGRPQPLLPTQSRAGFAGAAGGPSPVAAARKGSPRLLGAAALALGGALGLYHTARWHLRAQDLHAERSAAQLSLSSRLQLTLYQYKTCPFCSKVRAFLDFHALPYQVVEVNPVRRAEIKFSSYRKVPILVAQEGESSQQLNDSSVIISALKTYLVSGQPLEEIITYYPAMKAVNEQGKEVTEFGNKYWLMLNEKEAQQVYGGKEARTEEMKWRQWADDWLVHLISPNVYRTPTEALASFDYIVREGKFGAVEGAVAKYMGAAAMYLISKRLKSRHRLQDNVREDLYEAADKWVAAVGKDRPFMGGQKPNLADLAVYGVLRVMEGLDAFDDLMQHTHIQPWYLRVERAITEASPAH
UniProt Q92878: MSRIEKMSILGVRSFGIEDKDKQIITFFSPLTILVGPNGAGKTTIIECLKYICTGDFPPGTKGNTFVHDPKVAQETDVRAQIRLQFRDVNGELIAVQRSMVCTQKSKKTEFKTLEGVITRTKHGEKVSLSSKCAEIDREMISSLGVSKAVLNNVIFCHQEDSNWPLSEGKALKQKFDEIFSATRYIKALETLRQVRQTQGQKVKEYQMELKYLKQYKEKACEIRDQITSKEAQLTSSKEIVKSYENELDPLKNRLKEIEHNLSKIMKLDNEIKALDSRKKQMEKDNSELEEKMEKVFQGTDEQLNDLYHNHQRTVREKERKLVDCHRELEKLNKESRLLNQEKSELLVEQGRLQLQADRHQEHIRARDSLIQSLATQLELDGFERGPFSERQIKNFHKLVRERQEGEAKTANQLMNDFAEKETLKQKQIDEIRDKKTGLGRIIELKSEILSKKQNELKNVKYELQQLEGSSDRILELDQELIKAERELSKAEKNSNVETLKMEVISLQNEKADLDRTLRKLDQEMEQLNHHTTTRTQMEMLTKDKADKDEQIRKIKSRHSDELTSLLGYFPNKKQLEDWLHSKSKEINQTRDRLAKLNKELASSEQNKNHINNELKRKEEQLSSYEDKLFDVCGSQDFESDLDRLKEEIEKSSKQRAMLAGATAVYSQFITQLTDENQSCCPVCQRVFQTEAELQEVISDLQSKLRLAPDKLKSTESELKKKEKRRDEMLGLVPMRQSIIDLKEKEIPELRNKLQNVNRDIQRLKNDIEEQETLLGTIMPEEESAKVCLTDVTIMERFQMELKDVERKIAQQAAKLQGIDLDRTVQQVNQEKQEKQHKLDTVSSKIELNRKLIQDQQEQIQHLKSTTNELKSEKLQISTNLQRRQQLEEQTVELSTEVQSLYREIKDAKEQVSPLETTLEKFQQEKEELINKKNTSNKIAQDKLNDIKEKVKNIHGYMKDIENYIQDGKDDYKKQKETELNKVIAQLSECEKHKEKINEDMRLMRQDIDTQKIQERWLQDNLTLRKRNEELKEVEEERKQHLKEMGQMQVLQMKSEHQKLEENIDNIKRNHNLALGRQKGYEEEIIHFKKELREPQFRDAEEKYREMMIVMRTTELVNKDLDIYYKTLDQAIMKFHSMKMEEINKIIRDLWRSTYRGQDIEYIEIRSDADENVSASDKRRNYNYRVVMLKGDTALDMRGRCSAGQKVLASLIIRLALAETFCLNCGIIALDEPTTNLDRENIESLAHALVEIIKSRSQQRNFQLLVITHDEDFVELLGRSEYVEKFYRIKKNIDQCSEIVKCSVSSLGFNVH
UniProt P40763: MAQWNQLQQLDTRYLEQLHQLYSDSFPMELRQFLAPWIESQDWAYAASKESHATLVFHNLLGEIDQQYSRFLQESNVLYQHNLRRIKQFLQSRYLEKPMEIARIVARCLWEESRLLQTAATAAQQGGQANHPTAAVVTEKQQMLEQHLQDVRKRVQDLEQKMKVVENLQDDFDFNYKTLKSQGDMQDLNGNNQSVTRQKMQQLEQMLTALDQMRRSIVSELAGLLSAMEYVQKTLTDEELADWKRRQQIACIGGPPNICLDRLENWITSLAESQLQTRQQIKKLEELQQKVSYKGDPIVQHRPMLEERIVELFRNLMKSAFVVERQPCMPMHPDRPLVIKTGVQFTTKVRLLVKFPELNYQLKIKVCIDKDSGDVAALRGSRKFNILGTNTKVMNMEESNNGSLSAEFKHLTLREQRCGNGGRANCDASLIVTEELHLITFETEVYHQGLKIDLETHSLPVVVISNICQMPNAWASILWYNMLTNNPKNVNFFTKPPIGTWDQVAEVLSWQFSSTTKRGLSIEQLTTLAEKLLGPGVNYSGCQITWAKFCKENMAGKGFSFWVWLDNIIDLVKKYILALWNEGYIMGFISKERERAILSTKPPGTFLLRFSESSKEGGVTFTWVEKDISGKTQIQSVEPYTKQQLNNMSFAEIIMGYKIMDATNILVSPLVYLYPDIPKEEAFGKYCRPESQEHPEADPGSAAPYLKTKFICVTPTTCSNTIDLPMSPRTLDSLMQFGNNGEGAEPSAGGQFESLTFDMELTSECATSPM
UniProt O95071: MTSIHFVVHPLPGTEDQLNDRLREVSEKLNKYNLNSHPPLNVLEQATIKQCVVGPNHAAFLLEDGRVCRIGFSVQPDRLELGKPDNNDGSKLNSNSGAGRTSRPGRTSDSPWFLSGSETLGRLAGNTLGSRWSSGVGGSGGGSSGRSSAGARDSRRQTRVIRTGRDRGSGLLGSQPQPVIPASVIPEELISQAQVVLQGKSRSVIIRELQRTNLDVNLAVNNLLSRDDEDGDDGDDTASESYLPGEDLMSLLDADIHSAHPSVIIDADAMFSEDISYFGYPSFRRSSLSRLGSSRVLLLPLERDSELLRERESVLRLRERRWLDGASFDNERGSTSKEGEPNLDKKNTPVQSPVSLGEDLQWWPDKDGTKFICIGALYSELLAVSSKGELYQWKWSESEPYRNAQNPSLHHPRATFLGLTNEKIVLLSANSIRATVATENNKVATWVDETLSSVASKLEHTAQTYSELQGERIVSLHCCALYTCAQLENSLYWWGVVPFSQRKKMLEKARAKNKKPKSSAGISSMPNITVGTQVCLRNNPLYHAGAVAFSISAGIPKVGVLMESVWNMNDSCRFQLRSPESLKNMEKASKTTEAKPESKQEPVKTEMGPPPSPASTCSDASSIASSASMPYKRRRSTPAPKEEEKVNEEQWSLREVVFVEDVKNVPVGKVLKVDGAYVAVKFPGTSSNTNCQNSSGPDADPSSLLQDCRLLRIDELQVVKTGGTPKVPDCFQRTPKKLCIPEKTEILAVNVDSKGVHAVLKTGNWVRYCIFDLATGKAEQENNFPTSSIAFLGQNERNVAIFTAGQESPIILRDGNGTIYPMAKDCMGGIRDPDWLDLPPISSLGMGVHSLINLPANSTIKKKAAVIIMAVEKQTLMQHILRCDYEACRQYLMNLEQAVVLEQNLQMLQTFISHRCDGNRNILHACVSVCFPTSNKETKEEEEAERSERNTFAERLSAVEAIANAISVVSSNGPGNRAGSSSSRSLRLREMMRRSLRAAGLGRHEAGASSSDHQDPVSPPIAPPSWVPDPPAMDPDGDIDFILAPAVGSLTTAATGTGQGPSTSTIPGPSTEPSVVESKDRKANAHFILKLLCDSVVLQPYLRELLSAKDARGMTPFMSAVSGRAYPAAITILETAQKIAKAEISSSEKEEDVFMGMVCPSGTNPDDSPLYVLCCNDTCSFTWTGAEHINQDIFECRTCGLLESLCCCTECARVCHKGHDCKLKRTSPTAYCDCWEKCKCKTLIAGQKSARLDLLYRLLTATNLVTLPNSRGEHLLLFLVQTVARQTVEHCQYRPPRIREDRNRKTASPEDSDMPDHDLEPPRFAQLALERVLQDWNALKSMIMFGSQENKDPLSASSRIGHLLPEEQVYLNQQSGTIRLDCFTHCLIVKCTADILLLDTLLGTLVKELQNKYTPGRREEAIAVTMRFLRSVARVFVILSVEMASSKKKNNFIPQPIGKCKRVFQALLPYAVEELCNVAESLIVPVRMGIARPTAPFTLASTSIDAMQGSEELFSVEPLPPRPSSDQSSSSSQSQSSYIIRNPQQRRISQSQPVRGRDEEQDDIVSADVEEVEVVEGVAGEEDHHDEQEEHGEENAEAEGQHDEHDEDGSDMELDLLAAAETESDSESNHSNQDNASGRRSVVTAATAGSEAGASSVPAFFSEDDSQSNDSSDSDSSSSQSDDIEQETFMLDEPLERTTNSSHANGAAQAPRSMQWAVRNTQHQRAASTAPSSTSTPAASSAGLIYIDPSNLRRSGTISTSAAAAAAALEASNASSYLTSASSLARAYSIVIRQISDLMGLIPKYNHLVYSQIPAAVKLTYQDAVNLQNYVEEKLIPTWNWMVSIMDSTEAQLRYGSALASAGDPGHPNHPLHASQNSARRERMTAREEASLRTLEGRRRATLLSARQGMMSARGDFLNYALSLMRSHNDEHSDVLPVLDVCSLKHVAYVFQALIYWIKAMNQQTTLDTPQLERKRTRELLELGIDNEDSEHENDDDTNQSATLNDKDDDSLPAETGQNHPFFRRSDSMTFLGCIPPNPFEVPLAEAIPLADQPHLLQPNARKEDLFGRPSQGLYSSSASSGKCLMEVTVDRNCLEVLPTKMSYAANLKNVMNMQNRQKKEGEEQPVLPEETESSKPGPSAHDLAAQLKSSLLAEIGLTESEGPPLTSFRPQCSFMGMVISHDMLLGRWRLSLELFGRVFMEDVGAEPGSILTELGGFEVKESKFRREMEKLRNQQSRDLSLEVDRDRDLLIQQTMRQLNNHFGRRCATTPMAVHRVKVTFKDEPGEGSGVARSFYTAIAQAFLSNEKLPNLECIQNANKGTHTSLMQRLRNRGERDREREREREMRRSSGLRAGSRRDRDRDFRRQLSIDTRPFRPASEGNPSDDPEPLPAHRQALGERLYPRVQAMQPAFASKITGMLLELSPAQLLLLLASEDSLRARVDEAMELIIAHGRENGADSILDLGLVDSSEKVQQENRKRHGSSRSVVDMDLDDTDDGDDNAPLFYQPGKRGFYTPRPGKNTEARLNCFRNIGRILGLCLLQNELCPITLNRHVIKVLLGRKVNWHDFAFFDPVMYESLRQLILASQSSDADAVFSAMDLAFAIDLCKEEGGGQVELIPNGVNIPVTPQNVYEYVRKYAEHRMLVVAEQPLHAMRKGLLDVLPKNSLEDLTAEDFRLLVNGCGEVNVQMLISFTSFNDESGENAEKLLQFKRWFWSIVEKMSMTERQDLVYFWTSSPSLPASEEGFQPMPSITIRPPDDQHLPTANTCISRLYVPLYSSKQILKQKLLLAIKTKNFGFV

Substance	binding [1]	also measured
Prostaglandin E synthase 2 (PGES2) (from UniProt Q9H7Z7 1-377) (enzyme)	–	binding (MERS-CoV Nsp7 (MERS-CoV)): binds
RAD50 (from UniProt Q92878 1-1312)	binds	–
Stat3 (from UniProt P40763 1-770)	–	binding (MERS-CoV Nsp1 (MERS-CoV)): binds
UBR5 (from UniProt O95071 1-2799)	binds	–
inosine 5′-monophosphate (IMP) dehydrogenase 2 (IMPDH2) (from UniProt P12268 1-514) (enzyme)	binds	–

From paper PMC7808408
